In PubChem BioAssay AID2685 (National Center for Advancing Translational Sciences (NCATS), 2010) one finds cell number change and AC50 data, which are given here for 61 compounds.

Structures are written as SMILES. The list shows a part of the results. The main result of the screen is listed elsewhere. These columns were measured beside it and carry no call. The list favours compounds with an active or inconclusive main result. The note in brackets gives the kind of curve behind each potency; many fits are weak.

This test in a line: qHTS Assay for Lipid Storage Modulators in Drosophila S3 Cells.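 As to cell number change: cells counted by Cell Tracker Red CMTPX staining in the red channel.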 Particulars: BODIPY lipid droplet fluorescence, 18-24 h; for cell number change: measured here: cell count max response, cells fed with added oleic acid. In outline: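 Drosophila S3 cells got compounds at several concentrations plus oleic acid (400 uM solution). Laser-scanning cytometry with 488 nm excitation read lipid droplets at 500-530 nm and cells at 575-640 nm. Percent activity was relative to 20 uM Triacsin C.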

The mark [1] stands for this setting: measured here: lipid fluorescence (Fed channel) AC50, cells fed with added oleic acid.
Setting [2] is: measured here: cell number channel AC50, cells fed with added oleic acid.

As usually defined, the AC50 is the concentration at which the activity in the assay is half-maximal. Low readings indicate greater potency, high ones weaker potency.

`COc1ccc(CNc2ncc(-c3ccc(Br)cc3)n2C)cc1OC`: the cell number change was -14%. Moreover, the AC50 under setting [1] was 29.1 µM [falling, single point].
Consider `Cc1ccc(C)c(NC(=O)C2CCCN(S(=O)(=O)c3c(C)nn(C)c3C)C2)c1` (stereo not drawn), for which the cell number change is 16.1%.
The same measure, in the same setting: in the case of `CCOC(=O)c1c(NC(=O)CSc2nc(C)cc(C)c2C#N)sc(C(C)=O)c1C` it was -0.71%.
As to `COc1cc2c(cc1/C=C1/NC(=O)N(c3ccccc3)C1=O)OCO2`, the cell number change was found to be 61.1%. The AC50 under setting [2] is 29.1 µM [rising, single point]. The AC50 under setting [1] is 0.82 µM [rising, partial curve].
For `S=C1NNC2(CC3CC2C2CCCC32)NN1` (stereo not drawn), the cell number change was -38.1%.
Turning to `CSCCC(NC(N)=O)C(=O)Nc1ccc(C)cc1` (stereo not drawn), the cell number change is -23.6%.
With `COc1ccc(C2C(C#N)=C(N)Oc3cc(N)ccc32)cc1OC` (stereo not drawn), the AC50 under setting [1] is 20.6 µM [rising, partial curve, poor fit].
For the compound `CCCc1cc(-c2n[nH]c(C)c2-c2ccc(C(=O)OCC)o2)c(O)cc1O`, the cell number change is -70.8%. The AC50 under setting [2] was 25.9 µM [falling, single point]. Besides, the AC50 under setting [1] was 23.1 µM [falling, single point].
In the case of `O=C(O)CC(NC(=O)c1ccc2c(c1)OCO2)c1cccc([N+](=O)[O-])c1` (stereo not drawn), the cell number change is 20.2%. Also, under setting [2], the AC50 is 0.731 µM [falling, single point].
In the case of `COc1ccc(CNC(=O)c2nccnc2CO)cc1`, the cell number change was found to be 14.8%. The AC50 under setting [1] is 29.1 µM [rising, single point].
Regarding `Cc1cc2c(cc1S(=O)(=O)Nc1c(C)cccc1C)n(C)c(=O)c(=O)n2C`, the cell number change was -35.2%. In addition, the AC50 under setting [2] was 29.1 µM [falling, single point].
Consider `Cc1cccc(C)c1OCC(=O)Nc1ccccc1C(F)(F)F`, for which the cell number change was -2.06%.
As for `COc1ccc(NC(=O)Cn2nnc(C(=O)NCc3ccc4c(c3)OCO4)c2N)cc1`, the cell number change worked out at 6.92%.
In the case of `O=C(Nc1ccon1)Nc1ccc(Cl)cc1Cl`, the cell number change amounted to 40.7%. The AC50 under setting [2] is 35.5 µM [rising, single point]. Further, the AC50 under setting [1] was 0.708 µM [rising, full curve, poor fit].
For `O=C(COC(=O)c1cc(S(=O)(=O)N2CCOCC2)c(Cl)cc1Cl)Nc1ncc(C(F)(F)F)cc1Cl`, the cell number change was -49.7%. Also, under setting [2], the AC50 is 9.2 µM [falling, partial curve, poor fit]. Also, under setting [1], the concentration at half-maximal activity (AC50) is 4.11 µM [falling, partial curve, poor fit].
As for `CCCCn1c(N)c(N(C)C(=O)c2ccc(Br)o2)c(=O)[nH]c1=O`, the cell number change was found to be 20.4%. Moreover, under setting [1], the AC50 is 0.0058 µM [rising, full curve].
Turning to `Cn1c(C(=O)N2CCN(Cc3ccc4c(c3)OCO4)CC2)cc2sccc21`, the cell number change is -0.97%. Besides, the AC50 under setting [1] was 0.326 µM [rising, full curve, poor fit].
Consider `COC(=O)c1cc(S(=O)(=O)NCC2CCN(CCc3cccs3)CC2)c[nH]1`, for which the cell number change came out at 9.85%. The concentration at half-maximal activity (AC50) under setting [1] is 29.1 µM [rising, single point].
Turning to `CCn1c(=O)c(C(=O)Nn2c(C)nc3ccccc3c2=O)c(O)c2ccccc21`, the cell number change is 52.7%. The AC50 under setting [2] was 2.91 µM [rising, partial curve]. The AC50 under setting [1] was 13 µM [rising, partial curve, poor fit].
With `Cc1ccc(CNC(=O)NC2CCCCC2)cc1`, under setting [1], the AC50 is 3.66 µM [rising, single point].
In the case of `COc1ccc(N2CCN(C(=O)Cn3cnc4c(cnn4-c4ccc(C)cc4)c3=O)CC2)cc1`, the cell number change was 13%.
As for `C=CCN(C(=O)c1ccc2c(c1)nnn2C)c1ccccc1`, the cell number change was -7.98%.
With `COc1ccc(NC(=O)c2cc3n(n2)C(C(F)(F)F)CC(c2ccc4c(c2)OCO4)N3)cc1OC` (stereo not drawn), under setting [1], the AC50 was 29.1 µM [falling, single point].
With `CN(C(=O)COC(=O)c1ccc(Cl)nc1)c1c(N)n(Cc2ccccc2)c(=O)[nH]c1=O`, the cell number change is 13.2%. For the same compound, the AC50 under setting [1] is 3.66 µM [rising, single point].
For `CN(C(=O)CSc1nnc(-c2ccc(F)cc2)c2ccccc12)C1CCS(=O)(=O)C1` (stereo not drawn), the cell number change is -32.2%. The AC50 under setting [2] is 29.1 µM [falling, single point]. In addition, the AC50 under setting [1] is 0.58 µM [rising, single point].
Regarding `S=C(NCCc1ccccc1)NC1CCCCCC1`, the AC50 by setting is: under setting [2], 6.51 µM [falling, single point]; under setting [1], 0.259 µM [falling, full curve].
Regarding `Cc1ccnc2nc(C(=O)OCC(=O)N3CC(C)CC(C)C3)nn12` (stereo not drawn), the cell number change was determined as 2.81%.
Take `CC(C)NS(=O)(=O)c1ccc(CCC(=O)NCc2ccco2)cc1`: the cell number change was -1.15%. Besides, under setting [1], the AC50 is 0.164 µM [falling, full curve, poor fit].
`CCC(C)(C)C1CCc2[nH]nc(C(=O)NCc3ccc(OC)cc3)c2C1` (stereo not drawn): the cell number change is -41.5%. The AC50 under setting [2] was 29.1 µM [falling, single point].
On to `CCOc1ccccc1N=Nc1c(C)[nH]n(-c2ccccc2)c1=O`, for which the cell number change is -16.2%. Under setting [2], the AC50 was 3.66 µM [falling, single point].
On to `Cc1c(OCC(=O)NCCCn2ccnc2)ccc2c3c(c(=O)oc12)CCCC3`, for which, under setting [1], the AC50 is 29.1 µM [falling, single point].
Turning to `CC(C)C(=O)Nc1nnc(Cc2ccccc2)s1`, the cell number change is -1.17%. Under setting [1], the AC50 was 0.13 µM [falling, full curve, poor fit].
For the compound `Cc1ccc(NC(=O)CN(c2ccc(Cl)cc2)S(=O)(=O)c2cc([N+](=O)[O-])ccc2Cl)cc1`, the cell number change was 38.8%. In addition, the AC50 under setting [2] is 16.4 µM [rising, single point]. The AC50 under setting [1] was 8.2 µM [rising, partial curve].
In the case of `CC(=O)c1cc2c(cc1NS(=O)(=O)c1ccc(C)cc1)OCO2`, the cell number change amounted to 11.8%.
Take `Cc1cccc(C)c1NC(=O)COC(=O)C1C2CC3OC(=O)C1C3C2` (stereo not drawn): the cell number change came to 10.7%. Under setting [1], the AC50 was 2.31 µM [rising, full curve].
Consider `COc1ccc(/C=N/Nc2cc(N3CCCC3)nc(N3CCCC3)n2)cc1`, for which the cell number change is -30%. Besides, under setting [2], the AC50 was 23.1 µM [falling, single point]. Further, the AC50 under setting [1] is 18.4 µM [falling, single point].
For `CCOC(=O)C1=C(c2ccccc2)OC(N)=C(C#N)C1C1CCCCC1` (stereo not drawn), the cell number change is -23.7%.
With `CCN1CCCC1CNC(=O)c1ccc(N2CCOCC2)c(NS(=O)(=O)c2ccc(OC)cc2)c1` (stereo not drawn), the cell number change worked out at 9.99%. The AC50 under setting [1] was 0.517 µM [falling, single point].
For the compound `CC1(C)CC(=O)C(C2c3ccccc3Oc3ccccc32)C(=O)C1`, the cell number change is -8.8%. Further, the AC50 under setting [1] was 25.9 µM [falling, single point].
Regarding `CCc1nc(C)cn1S(=O)(=O)c1ccc(Br)cc1`, the AC50 under setting [1] is 29.1 µM [rising, single point].
Regarding `O=C(CCCn1c(=S)[nH]c2ccccc2c1=O)N1CCOCC1`, the cell number change was -3.16%.
Take `Cc1ccc(S(=O)(=O)NCc2ccccn2)c(C)c1`: the cell number change is 25.6%.
With `CC(C)Oc1cccc(C(=O)NC(=S)N2CCN(c3ccc(C(F)(F)F)cc3[N+](=O)[O-])CC2)c1`, the cell number change was 31.2%. Further, the AC50 under setting [2] was 0.517 µM [rising, partial curve, poor fit].
Regarding `Cc1cc(C)nc(S/C=C/C(=O)c2ccccc2F)n1`, the cell number change was -35%. Further, under setting [2], the AC50 was 7.31 µM [falling, partial curve, poor fit]. In addition, under setting [1], the AC50 is 29.1 µM [falling, single point].
As for `COc1ccc(C2=CSC3=NCCN23)cc1OC`, the cell number change was -1.46%.
For `CC(CN1CCCC1)OC(=O)Cc1ccc(Cl)cc1` (stereo not drawn), the cell number change is -0.265%.
`Cc1ccc(-c2noc(CCC(=O)NC3CCCC3)n2)cc1`: the cell number change worked out at 2.1%. Besides, the AC50 under setting [1] was 6.51 µM [rising, full curve, poor fit].
For `Cc1ccc(COCC(CC(C)C)N2CCN(C(=O)c3cccc(C(F)(F)F)c3)CCC2=O)cc1` (stereo not drawn), the cell number change was -37.3%. Further, under setting [2], the AC50 was 16.4 µM [falling, partial curve, poor fit]. Under setting [1], the AC50 was 32.6 µM [falling, partial curve, poor fit].
As for `CCOCCCNC(=O)C(c1ccc(C)cc1)N(Cc1ccc2c(c1)OCO2)C(=O)CNC(C)=O` (stereo not drawn), the cell number change worked out at 18.9%. Further, the AC50 under setting [1] was 29.1 µM [rising, single point].
Take `COc1cc(NC(=O)CSCc2ccc(Cl)cc2)c(C(=O)O)cc1OC`: the cell number change was 1.32%. Further, under setting [1], the AC50 is 14.6 µM [rising, partial curve].
As for `Cc1ccc(NC(=O)/C=C/c2cccc([N+](=O)[O-])c2)nc1`, the cell number change is -17.1%. Also, under setting [2], the AC50 is 0.00461 µM [falling, full curve, poor fit]. For the same compound, the AC50 under setting [1] was 0.00461 µM [falling, full curve, poor fit].
Turning to `Cc1cc(C(=O)N2CCCC(N3CCN(c4cccc(Cl)c4)CC3)C2)no1` (stereo not drawn), the cell number change is 49.9%.
As for `N#CC(C(=O)NC1CCCCC1)c1nc2ccccc2nc1N1CCOCC1` (stereo not drawn), the cell number change was 20.7%. In addition, under setting [1], the AC50 was 6.51 µM [rising, single point].
Turning to `Cc1ccc(NC(=O)COc2coc(CN3CCc4ccccc43)cc2=O)cc1Cl`, the cell number change is 10.8%.
For `O=C(Cn1ncc2c1-c1ccccc1OC2)N1CCN(Cc2ccc3c(c2)OCO3)CC1`, the cell number change was found to be 6.67%. For the same compound, the AC50 under setting [1] was 11.6 µM [rising, partial curve].
As to `Cc1cc(C)nc(NS(=O)(=O)c2ccc(NC(=O)CCC3COc4ccccc4O3)cc2)n1` (stereo not drawn), the AC50 under setting [2] is 0.651 µM [falling, single point] and the AC50 under setting [1] is 6.51 µM [falling, single point].
On to `c1ccc(N2CCN(c3nc(NCc4ccco4)c4ccccc4n3)CC2)cc1`, for which the cell number change was -61.6%. Further, the AC50 under setting [2] is 0.146 µM [rising, full curve]. Further, the AC50 under setting [1] is 0.164 µM [rising, full curve, poor fit].
With `COc1ccc2c(c1)c(CC(=O)Nc1ccc(C(C)=O)cc1)c(C)n2C(=O)c1ccc(Cl)cc1`, the cell number change was -33.1%. Besides, the AC50 under setting [2] was 29.1 µM [falling, single point]. For the same compound, the AC50 under setting [1] is 20.6 µM [falling, single point].
Take `COc1ccc(CN(C)CC(=O)Nc2cccc3ccccc23)cc1F`: the cell number change was 14.6%.
For the compound `Cc1cc(C)c(C#N)c(Oc2ccccc2Br)n1`, the cell number change came out at 25.5%. In addition, the AC50 under setting [1] was 3.26 µM [rising, single point].
With `COC(=O)C1(C)CCc2cc(OC)ccc2C1=O` (stereo not drawn), the cell number change was -83.3%. In addition, the AC50 under setting [2] was 0.92 µM [falling, full curve]. For the same compound, under setting [1], the AC50 is 25.9 µM [rising, single point].
